In the supplement of paper PMC10849652:
This is one part of the list.

The chains behind the UniProt entries cited, without tags or fusion partners. Where a name states a change or a piece, a line headed by the entry shows the natural chain unless it says otherwise.
UniProt Q99943: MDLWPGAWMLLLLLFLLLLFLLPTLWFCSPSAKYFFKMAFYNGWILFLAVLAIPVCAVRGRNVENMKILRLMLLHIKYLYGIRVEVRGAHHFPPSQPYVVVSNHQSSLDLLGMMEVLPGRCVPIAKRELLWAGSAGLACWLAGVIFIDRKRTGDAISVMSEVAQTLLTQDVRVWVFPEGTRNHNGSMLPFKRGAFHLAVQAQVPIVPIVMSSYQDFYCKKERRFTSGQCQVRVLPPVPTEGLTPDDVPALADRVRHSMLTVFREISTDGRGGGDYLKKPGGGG
UniProt P51648: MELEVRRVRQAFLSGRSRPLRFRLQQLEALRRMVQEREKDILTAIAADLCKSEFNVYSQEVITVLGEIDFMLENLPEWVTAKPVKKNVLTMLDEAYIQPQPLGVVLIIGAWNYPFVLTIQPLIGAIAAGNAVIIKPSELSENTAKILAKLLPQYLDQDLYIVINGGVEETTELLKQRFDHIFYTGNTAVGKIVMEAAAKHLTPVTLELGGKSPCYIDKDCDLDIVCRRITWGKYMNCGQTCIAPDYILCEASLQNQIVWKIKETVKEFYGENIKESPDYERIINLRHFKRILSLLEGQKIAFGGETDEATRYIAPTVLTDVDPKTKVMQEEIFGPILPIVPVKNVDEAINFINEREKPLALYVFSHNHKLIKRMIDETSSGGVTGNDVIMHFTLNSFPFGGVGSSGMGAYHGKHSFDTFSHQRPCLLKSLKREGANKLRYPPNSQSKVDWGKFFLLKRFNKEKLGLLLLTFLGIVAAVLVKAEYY
UniProt Q8TCU4: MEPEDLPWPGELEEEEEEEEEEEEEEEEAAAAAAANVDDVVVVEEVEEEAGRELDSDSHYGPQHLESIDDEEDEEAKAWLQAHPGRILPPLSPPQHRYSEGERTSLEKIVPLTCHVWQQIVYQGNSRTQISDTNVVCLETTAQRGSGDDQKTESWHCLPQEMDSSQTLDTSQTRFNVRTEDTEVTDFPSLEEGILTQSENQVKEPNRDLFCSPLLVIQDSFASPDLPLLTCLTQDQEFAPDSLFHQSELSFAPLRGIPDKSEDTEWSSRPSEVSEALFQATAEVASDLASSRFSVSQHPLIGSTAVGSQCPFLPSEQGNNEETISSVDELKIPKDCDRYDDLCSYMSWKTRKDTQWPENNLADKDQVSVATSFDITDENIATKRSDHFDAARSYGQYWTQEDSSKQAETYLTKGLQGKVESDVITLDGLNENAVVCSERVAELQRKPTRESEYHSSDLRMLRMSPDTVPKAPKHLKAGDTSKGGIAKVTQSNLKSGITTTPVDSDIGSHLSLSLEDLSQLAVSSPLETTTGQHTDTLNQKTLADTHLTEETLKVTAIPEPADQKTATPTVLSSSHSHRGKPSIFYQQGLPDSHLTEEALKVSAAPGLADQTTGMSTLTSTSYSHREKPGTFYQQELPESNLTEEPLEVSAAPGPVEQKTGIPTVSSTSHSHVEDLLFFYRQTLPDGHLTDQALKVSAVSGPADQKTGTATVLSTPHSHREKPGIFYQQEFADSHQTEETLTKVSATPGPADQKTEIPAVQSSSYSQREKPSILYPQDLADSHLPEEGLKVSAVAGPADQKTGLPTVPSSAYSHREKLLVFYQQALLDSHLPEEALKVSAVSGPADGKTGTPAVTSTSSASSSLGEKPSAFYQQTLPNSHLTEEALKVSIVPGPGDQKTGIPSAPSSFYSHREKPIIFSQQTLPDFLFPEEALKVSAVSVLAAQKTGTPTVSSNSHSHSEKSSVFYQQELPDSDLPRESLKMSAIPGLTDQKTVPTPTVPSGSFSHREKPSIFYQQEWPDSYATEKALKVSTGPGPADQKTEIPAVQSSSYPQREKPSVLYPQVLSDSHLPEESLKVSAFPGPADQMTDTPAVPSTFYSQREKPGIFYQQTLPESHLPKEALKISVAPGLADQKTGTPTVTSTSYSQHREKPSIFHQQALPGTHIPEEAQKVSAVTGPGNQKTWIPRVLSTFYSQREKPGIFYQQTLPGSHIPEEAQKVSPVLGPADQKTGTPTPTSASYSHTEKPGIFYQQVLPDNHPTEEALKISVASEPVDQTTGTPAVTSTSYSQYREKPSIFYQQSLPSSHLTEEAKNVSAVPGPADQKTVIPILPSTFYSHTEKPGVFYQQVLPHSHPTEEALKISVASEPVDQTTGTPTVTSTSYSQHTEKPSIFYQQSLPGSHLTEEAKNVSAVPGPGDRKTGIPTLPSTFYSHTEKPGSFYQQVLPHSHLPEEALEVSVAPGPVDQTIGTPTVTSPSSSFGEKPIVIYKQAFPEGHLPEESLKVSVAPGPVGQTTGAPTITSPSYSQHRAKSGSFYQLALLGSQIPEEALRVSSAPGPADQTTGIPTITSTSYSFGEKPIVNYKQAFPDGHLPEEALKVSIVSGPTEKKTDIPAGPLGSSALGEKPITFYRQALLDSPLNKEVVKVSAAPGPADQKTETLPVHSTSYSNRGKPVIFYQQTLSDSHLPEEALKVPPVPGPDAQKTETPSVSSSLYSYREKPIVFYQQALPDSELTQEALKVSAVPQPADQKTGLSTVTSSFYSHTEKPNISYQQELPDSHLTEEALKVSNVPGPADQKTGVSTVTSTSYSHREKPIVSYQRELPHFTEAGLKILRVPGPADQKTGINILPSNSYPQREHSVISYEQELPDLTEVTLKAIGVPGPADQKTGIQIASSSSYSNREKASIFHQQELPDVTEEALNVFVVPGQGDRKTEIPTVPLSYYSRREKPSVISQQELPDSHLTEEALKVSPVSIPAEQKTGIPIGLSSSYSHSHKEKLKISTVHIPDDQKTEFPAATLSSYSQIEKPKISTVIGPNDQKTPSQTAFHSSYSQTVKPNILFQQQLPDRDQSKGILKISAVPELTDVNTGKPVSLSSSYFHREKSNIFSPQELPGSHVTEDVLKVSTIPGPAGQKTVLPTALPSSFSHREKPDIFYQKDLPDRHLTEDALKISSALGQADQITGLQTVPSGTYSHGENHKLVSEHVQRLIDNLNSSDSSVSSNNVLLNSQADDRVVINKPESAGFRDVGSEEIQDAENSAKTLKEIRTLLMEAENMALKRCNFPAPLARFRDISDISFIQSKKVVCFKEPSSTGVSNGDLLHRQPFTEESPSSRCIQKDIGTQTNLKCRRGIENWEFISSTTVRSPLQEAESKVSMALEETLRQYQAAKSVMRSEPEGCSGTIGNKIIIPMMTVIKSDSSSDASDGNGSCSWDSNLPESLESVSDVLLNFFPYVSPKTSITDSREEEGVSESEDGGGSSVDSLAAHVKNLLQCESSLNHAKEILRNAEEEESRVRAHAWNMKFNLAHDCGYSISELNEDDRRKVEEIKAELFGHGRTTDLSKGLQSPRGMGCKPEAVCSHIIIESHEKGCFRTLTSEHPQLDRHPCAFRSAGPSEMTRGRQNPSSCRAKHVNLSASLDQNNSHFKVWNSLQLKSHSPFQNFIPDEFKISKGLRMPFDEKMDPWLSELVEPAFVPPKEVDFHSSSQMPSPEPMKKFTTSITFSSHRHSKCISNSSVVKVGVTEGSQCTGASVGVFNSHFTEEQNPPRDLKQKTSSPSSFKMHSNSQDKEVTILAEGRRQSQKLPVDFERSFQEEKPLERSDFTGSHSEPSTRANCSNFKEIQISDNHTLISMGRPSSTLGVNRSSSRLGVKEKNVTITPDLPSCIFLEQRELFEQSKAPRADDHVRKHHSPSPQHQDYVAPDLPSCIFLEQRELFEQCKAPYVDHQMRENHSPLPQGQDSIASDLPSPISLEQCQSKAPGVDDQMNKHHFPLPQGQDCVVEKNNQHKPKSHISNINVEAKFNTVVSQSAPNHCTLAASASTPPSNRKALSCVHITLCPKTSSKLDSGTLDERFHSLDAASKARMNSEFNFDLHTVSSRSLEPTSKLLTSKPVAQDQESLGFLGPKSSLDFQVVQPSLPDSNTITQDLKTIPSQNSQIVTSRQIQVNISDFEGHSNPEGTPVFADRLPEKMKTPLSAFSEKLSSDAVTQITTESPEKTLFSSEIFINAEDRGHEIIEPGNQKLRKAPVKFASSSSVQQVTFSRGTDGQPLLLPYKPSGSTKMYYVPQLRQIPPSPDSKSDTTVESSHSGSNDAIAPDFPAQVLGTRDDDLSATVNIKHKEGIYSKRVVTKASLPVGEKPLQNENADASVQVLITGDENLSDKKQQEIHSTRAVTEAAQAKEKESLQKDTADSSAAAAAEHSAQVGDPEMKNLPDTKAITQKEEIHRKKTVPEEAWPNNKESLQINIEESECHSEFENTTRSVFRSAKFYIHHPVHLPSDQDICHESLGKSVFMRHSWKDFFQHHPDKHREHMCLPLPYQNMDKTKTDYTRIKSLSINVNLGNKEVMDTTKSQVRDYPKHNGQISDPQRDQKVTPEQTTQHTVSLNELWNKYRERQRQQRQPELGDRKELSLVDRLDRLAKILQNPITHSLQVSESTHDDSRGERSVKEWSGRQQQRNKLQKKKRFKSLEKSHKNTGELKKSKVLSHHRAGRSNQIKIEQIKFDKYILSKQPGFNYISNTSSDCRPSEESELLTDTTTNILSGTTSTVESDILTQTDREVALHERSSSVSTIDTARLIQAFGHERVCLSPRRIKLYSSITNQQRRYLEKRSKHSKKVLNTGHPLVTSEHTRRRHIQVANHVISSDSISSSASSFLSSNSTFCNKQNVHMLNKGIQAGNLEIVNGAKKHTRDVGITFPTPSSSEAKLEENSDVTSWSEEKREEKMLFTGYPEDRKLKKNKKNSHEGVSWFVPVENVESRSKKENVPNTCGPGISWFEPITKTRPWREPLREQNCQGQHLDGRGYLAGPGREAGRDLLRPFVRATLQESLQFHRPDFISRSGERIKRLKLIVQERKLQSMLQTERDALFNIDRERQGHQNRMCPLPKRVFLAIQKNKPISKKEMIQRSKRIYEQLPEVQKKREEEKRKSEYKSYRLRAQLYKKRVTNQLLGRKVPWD
UniProt P04075: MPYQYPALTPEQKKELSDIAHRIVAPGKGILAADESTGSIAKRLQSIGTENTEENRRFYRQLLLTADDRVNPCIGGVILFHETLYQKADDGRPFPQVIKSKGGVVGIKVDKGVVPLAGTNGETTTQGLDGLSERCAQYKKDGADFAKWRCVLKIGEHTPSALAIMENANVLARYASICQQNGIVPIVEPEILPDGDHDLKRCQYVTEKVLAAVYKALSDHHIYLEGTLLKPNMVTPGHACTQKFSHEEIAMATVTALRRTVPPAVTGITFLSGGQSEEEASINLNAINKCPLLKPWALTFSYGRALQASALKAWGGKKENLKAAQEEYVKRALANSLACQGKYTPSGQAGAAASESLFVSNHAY
UniProt P05091: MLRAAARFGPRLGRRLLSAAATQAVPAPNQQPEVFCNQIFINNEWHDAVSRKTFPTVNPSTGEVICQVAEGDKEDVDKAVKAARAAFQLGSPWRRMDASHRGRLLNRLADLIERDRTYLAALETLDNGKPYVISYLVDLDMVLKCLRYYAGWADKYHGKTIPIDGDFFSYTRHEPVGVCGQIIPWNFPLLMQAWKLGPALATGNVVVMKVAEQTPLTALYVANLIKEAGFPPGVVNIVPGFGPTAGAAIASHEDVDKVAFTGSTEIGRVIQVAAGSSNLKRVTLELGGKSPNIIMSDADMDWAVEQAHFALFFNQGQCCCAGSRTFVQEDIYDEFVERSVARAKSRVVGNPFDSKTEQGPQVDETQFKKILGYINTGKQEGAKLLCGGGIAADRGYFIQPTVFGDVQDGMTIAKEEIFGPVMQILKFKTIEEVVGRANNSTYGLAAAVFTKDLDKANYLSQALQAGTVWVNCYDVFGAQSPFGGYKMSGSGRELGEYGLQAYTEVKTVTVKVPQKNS
UniProt P35612: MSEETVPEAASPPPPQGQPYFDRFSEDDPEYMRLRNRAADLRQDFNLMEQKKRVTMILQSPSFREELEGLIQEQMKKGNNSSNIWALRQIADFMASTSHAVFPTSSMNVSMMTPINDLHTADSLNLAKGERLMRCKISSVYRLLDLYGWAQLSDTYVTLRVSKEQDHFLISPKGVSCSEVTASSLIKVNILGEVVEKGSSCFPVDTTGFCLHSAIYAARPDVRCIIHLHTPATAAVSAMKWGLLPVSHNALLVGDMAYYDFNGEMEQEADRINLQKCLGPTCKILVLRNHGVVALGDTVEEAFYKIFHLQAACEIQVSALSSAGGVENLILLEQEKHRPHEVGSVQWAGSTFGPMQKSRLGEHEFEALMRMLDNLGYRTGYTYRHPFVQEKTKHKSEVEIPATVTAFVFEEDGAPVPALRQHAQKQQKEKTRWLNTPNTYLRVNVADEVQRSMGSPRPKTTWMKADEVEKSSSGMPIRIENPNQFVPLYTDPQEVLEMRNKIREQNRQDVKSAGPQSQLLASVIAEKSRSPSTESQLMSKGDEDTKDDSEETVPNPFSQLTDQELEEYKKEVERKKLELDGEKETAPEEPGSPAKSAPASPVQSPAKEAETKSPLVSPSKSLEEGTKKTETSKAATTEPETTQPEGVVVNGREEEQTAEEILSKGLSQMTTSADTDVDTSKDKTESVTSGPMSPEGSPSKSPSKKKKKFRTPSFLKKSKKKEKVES

Columns and labels:
Assay in all cases: log2 fold change, soluble protein after heating vs DMSO (PISA); higher = thermal stabilisation; K562 cells, 10 uM, 30 min; active = over 0.2 and 3.5 SD of the protein, either way, in both replicates (recomputed)
[1] = compound: C#Cc1cccc(Nc2ncnc3cc(OCCOC)c(OCCOC)cc23)c1 [erlotinib]
Summary of the method: (§1)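 K562 cells (2×10^6 cells/mL) were treated with 10 μM compound for 30 min, and aliquots were heated for 3 min over 48°C-58°C. Pooled aliquots were extracted in PBS with 0.5% NP-40 at 4°C, and the supernatant after 21,000xg for 90 min was measured by TMTpro 16plex LC-MS/MS with channel sums equalised. Reported thermal stability, relative to control samples and from duplicates, is a log2 fold change.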

[2] = compound: C/C(=N\NC(=O)C1=CC(=CC=C1)S(=O)(=O)N2CCOCC2)/C3=C(C=CC(=C3)Cl)O
Summary of the method: as §1

[3] = compound: C1=CC(=C(C=C1Cl)C2=NC3=NC=CN=C3C(=N2)NC4=CC=NC=C4)F
Summary of the method: as §1

[4] = compound: C1=CC(=CC=C1C2=NC3=C(N2)C=C(C=C3)C(=O)N)OC4=CC=C(C=C4)Cl
Summary of the method: as §1

[5] = compound: C1=CC2=C(C=CC(=C2)/C=C\3/C(=O)NC(=NCC4=CC=CS4)S3)N=C1
Summary of the method: as §1

[6] = compound: C1=CC2=NC=CN=C2C=C1/C=C/3\C(=O)NC(=O)S3
Summary of the method: as §1

[7] = compound: C1=CC=C(C=C1)C2=NC(=C(N2)C3=CC=NC=C3)C4=CC(=C(C=C4)Cl)O
Summary of the method: as §1

[8] = compound: C1=CC=C2C(=C1)C3=NNC4=CC=CC(=C43)C2=O
Summary of the method: as §1

[9] = compound: C1CCN(C1)C(=O)NC2=CC=CC(=C2)NC3=NC=C(C(=N3)NCCC4=CN=CN4)Br
Summary of the method: as §1

[10] = compound: C1CN(CCC1(CC2=CC=C(C=C2)Cl)N)C3=NC=NC4=C3C=CN4
Summary of the method: as §1

Measured: log2 fold change

AGPAT1 (UniProt Q99943)
inactive: [1] 0.04 | [2] -0.004 | [3] 0.008 | [4] -0.014 | [5] 0.013 | [6] 0.029 | [7] -0.015 | [8] -0.001 | [9] 0.001 | [10] 0.048

ADD1 isoform 3 (UniProt P35611)
inactive: [1] 0.041 | [2] 0.018 | [3] -0.013 | [4] -0.022 | [5] 0.071 | [6] 0.004 | [7] -0.08 | [8] -0.018 | [9] -0.018 | [10] 0.023

ALDH3A2 isoform 2 (UniProt P51648)
inactive: [1] 0.028 | [4] 0.059 | [6] 0.019

AFF1 isoform 2 (UniProt P51825)
inactive: [1] -0.048 | [2] 0.13 | [3] 0.001 | [4] -0.042 | [5] -0.001 | [6] -0.156 | [8] 0.127

ALMS1 (UniProt Q8TCU4)
inactive: [1] 0.505 | [4] -0.001 | [6] 0.003

AKNA (UniProt Q7Z591)
inactive: [1] -0.147 | [4] 0.195

ADIPOR2 (UniProt Q86V24)
inactive: [1] 0.107 | [2] 0.063 | [4] 0.049 | [5] 0.076 | [6] 0.045 | [8] -0.161 | [9] 0 | [10] 0.004

ALDOA (UniProt P04075)
inactive: [1] 0.088 | [2] -0.096 | [4] 0.096 | [5] 0.069 | [6] 0.152 | [7] -0.203 | [8] -0.094 | [9] -0.047 | [10] 0.093

AGTPBP1 isoform 3 (UniProt Q9UPW5)
inactive: [7] 0.06

Two records picked at random from those above:
AGPAT1 (UniProt Q99943)
inactive: [1] 0.04 | [2] -0.004 | [3] 0.008 | [4] -0.014 | [5] 0.013 | [6] 0.029 | [7] -0.015 | [8] -0.001 | [9] 0.001 | [10] 0.048

ALDH3A2 isoform 2 (UniProt P51648)
inactive: [1] 0.028 | [4] 0.059 | [6] 0.019

Further results follow.

ADD3 isoform 2 (UniProt Q9UEY8)
inactive: [2] 0.171 | [3] -0.049 | [5] 0.057 | [7] 0.009 | [8] 0.047 | [9] -0.016 | [10] 0.034

AGTRAP isoform 2 (UniProt Q6RW13)
inactive: [1] 0.071 | [4] -0.032 | [9] 0.121 | [10] -0.017

AMBRA1 isoform 5 (UniProt Q9C0C7)
inactive: [2] 0.068 | [3] -0.076 | [5] 0.076 | [6] 0.034 | [8] 0.018 | [9] -0.009 | [10] 0.203

ALKBH2 (UniProt Q6NS38)
inactive: [2] -0.135 | [3] -0.196 | [5] -0.074 | [6] -0.072 | [7] -0.037 | [8] -0.127 | [9] -0.008 | [10] -0.086

ALKBH1 (UniProt Q13686)
inactive: [2] -0.301 | [3] 0.118 | [5] 0.337 | [6] 0.029 | [7] -0.042 | [8] -0.117 | [9] -0.17 | [10] 0.127

ADGB (UniProt Q8N7X0)
inactive: [3] -0.278

ADGRV1 (UniProt Q8WXG9)
inactive: [3] -0.018 | [6] 0.098

ALDH2 isoform 2 (UniProt P05091)
inactive: [2] -0.197 | [3] -0.106 | [5] 0.6 | [6] 0.07 | [7] -0.263 | [8] 0.131 | [9] 0.208 | [10] 0.032

AKR1D1 (UniProt P51857)
inactive: [2] -0.008 | [5] 0.023 | [6] -0.012 | [8] -0.072 | [9] -0.023 | [10] -0.395

AMOTL1 (UniProt Q8IY63)
inactive: [6] -0.045

AHSP (UniProt Q9NZD4)
inactive: [1] -0.043 | [4] 0.277 | [7] 0.062

ALDOC (UniProt J3QKP5)
inactive: [2] -0.228 | [3] -0.175 | [5] 0.208 | [6] -0.27 | [7] -0.235 | [8] -0.322 | [9] 0.263 | [10] -0.015

ALKBH8 isoform 4 (UniProt Q96BT7)
inactive: [3] 0.093 | [6] -0.001

AGPAT4 (UniProt Q9NRZ5)
inactive: [1] -0.047 | [4] -0.072 | [6] 0.042 | [7] 0.057 | [9] -0.115 | [10] -0.022

ADCY7 (UniProt P51828)
inactive: [2] 0.403 | [3] 0.051 | [5] -0.123 | [7] -0.198 | [8] -0.274

ADD1 isoform 4 (UniProt P35611)
inactive: [3] 0.169 | [6] -0.019

AGAP1 (UniProt Q9UPQ3)
inactive: [1] 0.014 | [4] -0.002 | [7] -0.102

ALG13 isoform 2 (UniProt Q9NP73)
inactive: [2] 0.182 | [3] 0.038 | [5] -0.017 | [6] 0.096 | [8] -0.076

ALDH7A1 (UniProt P49419)
inactive: [3] 0.019

ALOX12B (UniProt O75342)
inactive: [2] 0.038 | [5] 0.226 | [6] 0.143 | [7] -0.749 | [8] -0.203 | [9] -0.229 | [10] -0.401

ADD2 isoform 9 (UniProt P35612)
inactive: [6] -0.025 | [7] 0.203

AMDHD2 (UniProt Q9Y303)
inactive: [1] 0.005 | [4] 0.071 | [9] -0.02 | [10] 0.078

ALDOB (UniProt P05062)
inactive: [3] 0.407

AKTIP isoform 2 (UniProt Q9H8T0)
inactive: [3] -0.07 | [6] -0.125

ANAPC13 (UniProt Q9BS18)
inactive: [3] -0.343

AKAP9 isoform 6 (UniProt Q99996)
inactive: [3] 0.332 | [7] -0.12

ALOX5 (UniProt P09917)
inactive: [9] 0.031 | [10] 0.07

ADGRD1 isoform 4 (UniProt Q6QNK2)
inactive: [2] 0.12 | [5] 0.166 | [8] -0.024 | [9] -0.035 | [10] 0

AIG1 (UniProt Q9NVV5)
inactive: [2] -0.062 | [5] 0.165 | [8] -0.096 | [9] 0.099 | [10] 0.055

ALKBH7 (UniProt Q9BT30)
inactive: [7] -0.196

ADNP (UniProt Q9H2P0)
inactive: [2] -0.036 | [5] 0.032 | [8] -0.019

AMZ2 (UniProt Q86W34)
inactive: [3] 0.244 | [7] 0.092
